These are yes or no findings as the source states them, for the method shown. In cells and extracts the contact can be indirect. Some entries that bind do so weakly or less than the wild type.
Legend:
[1] = molecular target: wild-type HSP110 (heat-shock protein 110), GFP-tagged (Homo sapiens (Human)) (UniProt Q92598); experiment: co-immunoprecipitation (antibody to the C-terminus of HSP110) and GFP immunoblot, transfected HCT116 cells
[2] = molecular target: wild-type HSP110 (heat-shock protein 110), GFP-tagged (Homo sapiens (Human)) (UniProt Q92598); experiment: co-immunoprecipitation, transfected HCT116 cells (told again in the discussion)
[3] = molecular target: heat-shock protein 27 (HSP27) (UniProt P04792); experiment: co-immunoprecipitation and Western blot, HCT116 cells
[4] = molecular target: heat-shock protein 70 (HSP70) (UniProt P0DMV8); experiment: as above

Amino acid sequences for entries named in this document (tags omitted). A change or cut given only in a name is not applied to a line headed by its entry.
UniProt Q92598: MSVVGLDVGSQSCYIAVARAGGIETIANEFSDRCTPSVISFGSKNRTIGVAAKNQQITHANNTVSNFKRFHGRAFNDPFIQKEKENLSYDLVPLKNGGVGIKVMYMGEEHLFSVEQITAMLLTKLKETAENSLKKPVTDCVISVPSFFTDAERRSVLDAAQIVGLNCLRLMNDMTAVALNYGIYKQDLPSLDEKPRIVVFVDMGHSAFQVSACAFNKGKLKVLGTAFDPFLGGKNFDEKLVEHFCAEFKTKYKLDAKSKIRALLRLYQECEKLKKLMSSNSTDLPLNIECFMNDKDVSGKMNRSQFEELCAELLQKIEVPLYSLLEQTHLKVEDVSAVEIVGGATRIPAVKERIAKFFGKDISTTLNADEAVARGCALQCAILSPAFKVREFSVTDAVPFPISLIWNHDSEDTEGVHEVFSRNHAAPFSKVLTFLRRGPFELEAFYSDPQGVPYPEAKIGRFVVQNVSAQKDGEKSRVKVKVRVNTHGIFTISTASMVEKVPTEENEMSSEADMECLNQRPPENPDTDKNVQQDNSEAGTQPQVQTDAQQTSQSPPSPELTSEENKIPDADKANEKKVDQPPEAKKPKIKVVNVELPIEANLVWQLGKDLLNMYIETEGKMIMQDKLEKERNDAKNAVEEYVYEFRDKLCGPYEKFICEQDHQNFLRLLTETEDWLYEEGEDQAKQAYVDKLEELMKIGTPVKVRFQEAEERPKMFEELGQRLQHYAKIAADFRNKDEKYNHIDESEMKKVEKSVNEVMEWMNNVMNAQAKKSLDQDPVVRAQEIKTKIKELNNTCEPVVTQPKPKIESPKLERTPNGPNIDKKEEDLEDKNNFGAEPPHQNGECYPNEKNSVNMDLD
UniProt P04792: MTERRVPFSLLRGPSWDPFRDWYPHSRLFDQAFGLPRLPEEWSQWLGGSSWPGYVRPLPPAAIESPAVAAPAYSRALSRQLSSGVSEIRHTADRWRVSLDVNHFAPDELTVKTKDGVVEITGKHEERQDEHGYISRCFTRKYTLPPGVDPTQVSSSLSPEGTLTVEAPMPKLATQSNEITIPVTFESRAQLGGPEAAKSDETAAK
UniProt P0DMV8: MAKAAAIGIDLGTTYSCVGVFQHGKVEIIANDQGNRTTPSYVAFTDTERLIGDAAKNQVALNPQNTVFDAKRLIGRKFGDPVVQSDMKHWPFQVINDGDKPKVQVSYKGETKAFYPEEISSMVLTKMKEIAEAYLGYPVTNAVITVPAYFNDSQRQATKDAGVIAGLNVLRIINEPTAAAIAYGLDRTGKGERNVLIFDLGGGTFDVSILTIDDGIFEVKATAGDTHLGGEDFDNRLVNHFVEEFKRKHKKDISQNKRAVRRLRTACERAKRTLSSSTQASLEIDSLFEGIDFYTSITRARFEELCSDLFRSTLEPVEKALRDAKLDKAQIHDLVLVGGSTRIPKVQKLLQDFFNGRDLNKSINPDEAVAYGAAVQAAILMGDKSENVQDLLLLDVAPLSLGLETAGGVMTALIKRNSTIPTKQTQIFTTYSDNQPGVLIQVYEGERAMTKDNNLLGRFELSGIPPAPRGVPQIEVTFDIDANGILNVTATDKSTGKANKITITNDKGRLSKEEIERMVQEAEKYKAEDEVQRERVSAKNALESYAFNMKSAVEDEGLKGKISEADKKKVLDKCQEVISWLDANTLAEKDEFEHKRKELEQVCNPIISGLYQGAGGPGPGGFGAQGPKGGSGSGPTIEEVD
UniProt Q5R606: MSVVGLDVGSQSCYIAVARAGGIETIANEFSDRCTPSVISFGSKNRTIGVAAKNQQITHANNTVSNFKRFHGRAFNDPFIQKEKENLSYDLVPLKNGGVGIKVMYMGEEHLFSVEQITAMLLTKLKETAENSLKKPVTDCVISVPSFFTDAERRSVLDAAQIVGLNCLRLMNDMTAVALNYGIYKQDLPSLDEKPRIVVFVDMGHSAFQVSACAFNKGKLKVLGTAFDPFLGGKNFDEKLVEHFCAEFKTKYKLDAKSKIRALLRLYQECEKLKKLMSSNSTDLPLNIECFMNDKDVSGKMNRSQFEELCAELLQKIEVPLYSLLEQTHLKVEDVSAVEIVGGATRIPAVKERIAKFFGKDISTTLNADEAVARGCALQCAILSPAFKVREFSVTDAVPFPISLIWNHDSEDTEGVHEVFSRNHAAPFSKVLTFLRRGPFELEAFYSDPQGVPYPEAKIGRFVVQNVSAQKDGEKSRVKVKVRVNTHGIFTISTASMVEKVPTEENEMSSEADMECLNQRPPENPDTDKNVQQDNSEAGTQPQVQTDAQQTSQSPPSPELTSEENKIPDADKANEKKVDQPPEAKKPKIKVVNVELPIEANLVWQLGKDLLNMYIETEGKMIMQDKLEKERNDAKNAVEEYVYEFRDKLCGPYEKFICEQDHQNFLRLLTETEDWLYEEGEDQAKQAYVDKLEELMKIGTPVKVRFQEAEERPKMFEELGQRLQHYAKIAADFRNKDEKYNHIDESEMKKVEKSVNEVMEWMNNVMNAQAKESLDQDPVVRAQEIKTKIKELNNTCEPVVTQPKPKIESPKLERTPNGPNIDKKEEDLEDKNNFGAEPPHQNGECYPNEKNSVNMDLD

Substance	binding [1]	binding [2]	binding [3]	binding [4]
mutated HSP110 lacking exon 9 (HSP110delE9), GFP-tagged (from UniProt Q5R606 1-380)	binds	binds		
wild-type HSP110 (heat-shock protein 110), GFP-tagged (from UniProt Q92598 1-858)			binds	binds

From patent publication US20140038900A1
